Results published in article PMC11569202.

Chains of the proteins cited; added tags and fusions are not shown.
UniProt P35579: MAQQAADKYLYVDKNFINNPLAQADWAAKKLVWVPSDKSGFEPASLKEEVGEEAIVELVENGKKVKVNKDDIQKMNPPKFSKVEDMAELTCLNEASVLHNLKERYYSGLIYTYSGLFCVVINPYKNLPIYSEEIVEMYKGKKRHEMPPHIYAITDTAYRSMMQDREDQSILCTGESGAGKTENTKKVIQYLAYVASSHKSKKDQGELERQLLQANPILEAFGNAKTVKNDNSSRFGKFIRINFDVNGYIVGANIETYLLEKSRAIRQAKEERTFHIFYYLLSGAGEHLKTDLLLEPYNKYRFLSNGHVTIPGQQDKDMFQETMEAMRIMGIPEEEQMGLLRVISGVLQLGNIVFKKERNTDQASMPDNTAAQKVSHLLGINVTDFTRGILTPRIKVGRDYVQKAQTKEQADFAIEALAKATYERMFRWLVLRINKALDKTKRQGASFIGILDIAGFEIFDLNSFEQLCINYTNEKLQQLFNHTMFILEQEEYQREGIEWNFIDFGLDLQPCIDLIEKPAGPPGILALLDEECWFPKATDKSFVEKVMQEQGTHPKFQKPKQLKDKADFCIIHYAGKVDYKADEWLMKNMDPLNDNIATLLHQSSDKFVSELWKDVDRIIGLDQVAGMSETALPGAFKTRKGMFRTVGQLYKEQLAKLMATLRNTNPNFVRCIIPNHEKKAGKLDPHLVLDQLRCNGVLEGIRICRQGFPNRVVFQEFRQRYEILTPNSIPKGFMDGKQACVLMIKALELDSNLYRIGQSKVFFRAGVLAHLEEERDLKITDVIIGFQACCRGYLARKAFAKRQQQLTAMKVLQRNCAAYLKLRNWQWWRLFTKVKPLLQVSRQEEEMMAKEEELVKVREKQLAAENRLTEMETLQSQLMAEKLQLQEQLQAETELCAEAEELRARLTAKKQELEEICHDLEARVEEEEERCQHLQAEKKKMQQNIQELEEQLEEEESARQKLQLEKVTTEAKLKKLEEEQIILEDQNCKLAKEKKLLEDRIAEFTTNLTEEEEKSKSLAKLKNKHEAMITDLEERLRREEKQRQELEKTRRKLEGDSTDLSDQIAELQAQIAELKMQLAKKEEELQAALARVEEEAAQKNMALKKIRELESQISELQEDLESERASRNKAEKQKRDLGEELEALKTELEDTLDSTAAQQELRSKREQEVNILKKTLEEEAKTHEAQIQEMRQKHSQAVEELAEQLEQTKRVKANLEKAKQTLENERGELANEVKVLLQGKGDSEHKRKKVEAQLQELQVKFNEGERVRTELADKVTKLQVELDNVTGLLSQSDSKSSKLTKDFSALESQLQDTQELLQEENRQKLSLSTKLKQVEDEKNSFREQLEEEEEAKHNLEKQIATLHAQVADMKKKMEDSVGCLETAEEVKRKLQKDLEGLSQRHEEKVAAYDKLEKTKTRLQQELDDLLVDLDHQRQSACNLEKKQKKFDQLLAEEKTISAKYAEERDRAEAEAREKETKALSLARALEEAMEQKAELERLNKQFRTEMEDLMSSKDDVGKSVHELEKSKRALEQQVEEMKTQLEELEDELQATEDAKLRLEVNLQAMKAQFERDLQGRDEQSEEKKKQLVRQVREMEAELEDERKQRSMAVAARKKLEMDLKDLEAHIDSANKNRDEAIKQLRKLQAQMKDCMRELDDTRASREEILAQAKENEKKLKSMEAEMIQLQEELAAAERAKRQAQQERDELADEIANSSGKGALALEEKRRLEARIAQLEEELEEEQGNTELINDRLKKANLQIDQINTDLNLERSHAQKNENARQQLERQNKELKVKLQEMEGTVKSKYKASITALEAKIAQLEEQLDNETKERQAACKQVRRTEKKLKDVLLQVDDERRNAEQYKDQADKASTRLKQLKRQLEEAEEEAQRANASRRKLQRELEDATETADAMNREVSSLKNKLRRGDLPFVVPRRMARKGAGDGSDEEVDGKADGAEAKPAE

Molecular target: T1, Flag-FATS (fragile site-associated tumor suppressor) (UniProt Q96M02)
T1 sequence: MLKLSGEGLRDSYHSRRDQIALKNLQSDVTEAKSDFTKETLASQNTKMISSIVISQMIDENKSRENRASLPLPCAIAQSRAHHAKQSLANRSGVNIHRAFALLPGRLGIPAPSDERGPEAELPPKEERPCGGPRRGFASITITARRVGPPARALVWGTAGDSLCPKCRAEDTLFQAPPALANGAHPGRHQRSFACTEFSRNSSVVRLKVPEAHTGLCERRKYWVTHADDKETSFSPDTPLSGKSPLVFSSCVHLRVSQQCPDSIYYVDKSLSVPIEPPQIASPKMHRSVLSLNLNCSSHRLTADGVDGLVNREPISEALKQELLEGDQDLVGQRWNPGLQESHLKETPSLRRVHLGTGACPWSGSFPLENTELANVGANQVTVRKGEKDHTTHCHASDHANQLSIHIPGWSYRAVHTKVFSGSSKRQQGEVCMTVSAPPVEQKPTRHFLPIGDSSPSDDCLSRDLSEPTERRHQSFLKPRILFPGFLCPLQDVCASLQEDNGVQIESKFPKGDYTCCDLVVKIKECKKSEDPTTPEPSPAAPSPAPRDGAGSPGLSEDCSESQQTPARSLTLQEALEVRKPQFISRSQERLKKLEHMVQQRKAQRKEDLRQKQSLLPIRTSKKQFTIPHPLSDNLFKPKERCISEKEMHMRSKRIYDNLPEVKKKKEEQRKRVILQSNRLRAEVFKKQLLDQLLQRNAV
Assay: affinity purification with mass spectrometry; MCF-7 cells transfected with Flag-FATS or an empty plasmid; co-immunoprecipitation, silver staining, mass spectrometry of the co-immunoprecipitated proteins

binding: binds
Substance: myosin heavy chain 9 (MYH9) (from UniProt P35579 1-1960)

These are yes or no findings as the source states them, for the method shown. Binding seen in cells or lysates may run through a third protein. These calls come from enrichment with a bait or labelling near it, and not all partners need be listed. Sequences can lack the tags named with a protein.
